Data source: PubChem BioAssay AID1259424 (University of Nebraska Medical Center, 2018)

Screen: 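Rank knockdowns across the genome by resemblance to the KSR1 depletion profile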 (primary screen)
Cell system: human HCT116 colon cancer cells
Reagents: siRNA pool against human genes, 50 nM
Detection: 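Six signature mRNAs by branched-DNA multiplex assay, scaled to two housekeeping genes and non-targeting median, log2; matched to mean KSR1 knockdown profile by Pearson correlation and euclidean distance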
Scale: mean correlation with KSR1 profile and KSR1 correlation: higher = expression change more like KSR1 knockdown; mean distance from KSR1 profile: higher = expression change less like KSR1 knockdown
The whole screen tested about 14,000 reagents; this is a part drawn at random. 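Higher correlation or smaller distance means closer resemblance to KSR1 loss; control wells, including KSR1 knockdowns, recur on many plates.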 Some reagents were tested in more than one well and are listed for each. No sequences are given here. Not stated in the record: the time to read-out.

The first 4 entries, to show the layout:
gene knocked down	mean correlation with KSR1 profile	mean distance from KSR1 profile	KSR1 correlation, replicate 1	KSR1 correlation, replicate 2	KSR1 correlation, replicate 3
SLC30A4	-0.502	1.97	-0.516	-0.58	-0.321
NFATC4	-0.138	2.66	-0.22	0.489	-0.32
PYGB	-0.442	2.41	-0.232	-0.628	-0.389
SUGP2	0.262	1.51	0.253	0.303	0.105

The listing, from the start:
gene knocked down	mean correlation with KSR1 profile	mean distance from KSR1 profile	KSR1 correlation, replicate 1	KSR1 correlation, replicate 2	KSR1 correlation, replicate 3
SLC30A4	-0.502	1.97	-0.516	-0.58	-0.321
NFATC4	-0.138	2.66	-0.22	0.489	-0.32
PYGB	-0.442	2.41	-0.232	-0.628	-0.389
SUGP2	0.262	1.51	0.253	0.303	0.105
WWP1	0.418	1.13	0.157	0.327	0.531
THNSL2	-0.107	3.83	0.128	-0.268	-0.167
CD8B	0.0787	1.23	0.321	-0.0465	0.133
AP1S2	-0.136	2.12	-0.113	0.176	-0.257
COL4A1	-0.498	1.71	-0.377	-0.499	-0.522
SNX11	-0.339	1.31	-0.318	-0.591	-0.141
AKIRIN2	0.803	1.13	0.523	0.641	0.937
RFPL3	0.113	1.74	0.26	0.197	-0.0588
PIMREG	0.0658	1.42	0.133	-0.326	0.0186
AOC3	0.368	2.73	0.37	0.514	0.203
NCOA3	-0.0273	2.13	-0.0296	0.131	-0.121
MRPL42	-0.612	2.05	-0.6	-0.482	-0.865
PNMA8B	-0.475	4.71	-0.295	-0.26	-0.355
PGK1	0.294	1.24	0.688	0.115	-0.414
DUSP3	0.159	1.56	0.18	-0.145	0.432
LRRC27	0.836	0.882	0.799	0.876	0.844
FAM174C	-0.771	7.73	-0.621	-0.625	-0.569
PHYHIPL	0.116	2.07	0.12	0.144	-0.312
RNF2	0.171	1.84	0.329	-0.00273	0.119
CA10	-0.627	6.42	-0.179	-0.265	-0.409
PGD	-0.0963	2	0.0399	0.109	-0.393
CPA3	0.0182	2.42	-0.0136	-0.0117	0.029
MTMR9	0.429	1.74	0.494	0.293	0.0731
RAPGEF5	0.23	1.96	0.0941	0.628	0.0733
RCN1	0.559	0.933	0.533	0.531	0.484
GRPEL1	0.216	2.46	-0.00918	0.216	0.177
PRG3	0.322	1.23	-0.145	0.525	0.264
ANKRD50	-0.628	2.07	-0.565	-0.495	-0.597
LAD1	0.399	2.66	0.368	0.346	0.439
SCEL	-0.271	2.26	-0.275	-0.296	-0.198
PICALM	0.34	1.32	0.276	0.338	0.222
ERF	0.409	1.66	0.478	0.492	0.227
GNPTAB	-0.225	2.48	-0.403	-0.356	-0.185
PCDH11Y	-0.0125	2.32	-0.00803	0.0567	-0.21
DARS1	0.3	2.04	0.371	0.328	0.073
GRAMD4	-0.707	2.14	-0.674	-0.5	-0.778
CHAD	-0.075	2.04	0.214	-0.143	-0.243
KRTAP3-1	0.666	2.61	0.455	0.567	0.753
GRK4	0.33	2.8	0.281	0.432	0.276
GRK4	0.146	2.28	0.29	0.0144	-0.0928
CEP97	0.239	1.63	0.515	0.138	0.107
FOXP1	0.38	3.08	0.375	0.395	0.375
CGB5	0.0222	2.07	0.00336	-0.152	0.00251
GPCPD1	-0.402	3.5	-0.176	-0.439	-0.37
ZNF559	0.771	1.64	0.918	0.721	0.278
TMEM132A	-0.449	3.48	-0.301	-0.516	-0.602
